Laboratory results from patent US20090312423A1, “THERAPEUTIC TREATMENT FOR LUNG CONDITIONS” (Vanderbilt University, priority 2008, published 2009).

Tested on: chronically hypoxic piglets
Test: In vivo hemodynamics in newborn piglets exposed to 10 days of chronic hypoxia
Description: A total of 17 hypoxic and 17 control piglets were studied. Control animals were studied on the day of arrival from the farm at 12 days of age. The hypoxic pigs (2 days old) were placed in a normobaric hypoxic chamber for 10 to 11 days. Normobaric hypoxia was provided using compressed air and nitrogen to create inspired oxygen of 8-11% (PO2 60-72 Torr) and CO2 was maintained at 3-6 Torr by absorption with soda lime. The animals were monitored with daily weights and physical exam twice daily. They were fed ad lib with sow milk replacer from a feeding device in the cage.
Six of the seventeen hypoxic piglets were supplemented with oral L-citrulline starting on the first day of the hypoxic exposure. L-citrulline supplementation was provided at a dose of 0.13-gm/kilogram body weight twice a day using a syringe to deliver the dose orally. If it appeared to study personnel that the piglet had not ingested the majority of a dose, it was repeated. L-citrulline was mixed using a preparation (Sigma Pharmaceuticals, St. Louis, Mo., United States of America, 98% purity) at a concentration of 0.13 grams per milliliter of distilled water and when completely dissolved passing this solution through a 0.20 Micron filter.
In vivo hemodynamics were measured in 6 of the control piglets and all of the hypoxic piglets. For these measurements, the animals were weighed and then preanesthetized with Ketamine (15 mg/kg) and Acepromazine (2 mg/kg) intramuscularly. A tracheostomy, venous and arterial catheters, and thermistor were then placed as previously described using intravenous pentobarbital for sedation. Fike, C. D. et al., J Appl Physiol (2000) 88:1797-1803. Pulmonary artery pressure, left ventricular end diastolic pressure, and cardiac output were measured. Cardiac output was measured by a thermodilution technique (model 9520 thermodilution cardiac output computer, Edwards Laboratory, Irvine, Calif., United States of America) using a thermistor in the aortic arch and the left ventricle catheter as an injection port. Cardiac output was measured at end expiration as the mean of three injections of 3 ml of normal saline (0° C.). Exhaled NO was measured as described below. During the in vivo measurements, animals were ventilated with room air using a piston-type ventilator at a tidal volume of 15-20 cc/kg, end-expiratory pressure of 2 mmHg, and a respiratory rate of 15-20 breaths per minute.
Pulmonary vascular resistance was calculated from the in vivo hemodynamic measurements: (Pulmonary arterial pressure−left ventricular end diastolic pressure)÷(Cardiac output/body weight).
Data are presented as means±SE. The one-way ANOVA with Fisher's protected least significant difference (PLSD) post hoc comparison test was used to compare data between control, untreated hypoxic and L-citrulline treated hypoxic animals. A p-value less than 0.05 was considered significant. Meier, U., Pharm Stat (2006) 5:253-263.

[1] = chronically hypoxic piglets, oral L-citrulline 0.13 g/kg twice a day, mean ± SEM, N = 6

**Q.** What does the source list for `NC(=O)NCCC[C@H](N)C(=O)O` [L-citrulline]?
**A.** paO2 (L-citrulline treated hypoxic piglets): 78±7 Torr; Aortic Pressure [1]: 97 ± 6 cm H2O; Arterial pH [1]: 7.36 ± 0.02; Cardiac Output [1]: 270 ± 41 mL/min/kg; LVEDP [1]: 7.2 ± 0.4 cmH20; Weight at 12 days of age [1]: 2.6 ± 0.09 kg
